Laboratory results published in the supplement of paper PMC10849652.
The other results are listed elsewhere or left out.

Protein sequences, listed by entry. Tags and fused reporters are not part of them. Lines headed by an entry give the natural chain unless they say otherwise; changes in a name come on top.
UniProt Q9UGY1: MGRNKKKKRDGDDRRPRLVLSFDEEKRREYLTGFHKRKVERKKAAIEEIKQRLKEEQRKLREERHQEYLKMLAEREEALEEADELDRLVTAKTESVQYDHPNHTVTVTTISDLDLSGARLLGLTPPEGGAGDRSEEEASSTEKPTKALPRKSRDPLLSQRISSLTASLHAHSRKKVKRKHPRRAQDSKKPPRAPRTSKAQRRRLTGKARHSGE
UniProt Q9Y6R0: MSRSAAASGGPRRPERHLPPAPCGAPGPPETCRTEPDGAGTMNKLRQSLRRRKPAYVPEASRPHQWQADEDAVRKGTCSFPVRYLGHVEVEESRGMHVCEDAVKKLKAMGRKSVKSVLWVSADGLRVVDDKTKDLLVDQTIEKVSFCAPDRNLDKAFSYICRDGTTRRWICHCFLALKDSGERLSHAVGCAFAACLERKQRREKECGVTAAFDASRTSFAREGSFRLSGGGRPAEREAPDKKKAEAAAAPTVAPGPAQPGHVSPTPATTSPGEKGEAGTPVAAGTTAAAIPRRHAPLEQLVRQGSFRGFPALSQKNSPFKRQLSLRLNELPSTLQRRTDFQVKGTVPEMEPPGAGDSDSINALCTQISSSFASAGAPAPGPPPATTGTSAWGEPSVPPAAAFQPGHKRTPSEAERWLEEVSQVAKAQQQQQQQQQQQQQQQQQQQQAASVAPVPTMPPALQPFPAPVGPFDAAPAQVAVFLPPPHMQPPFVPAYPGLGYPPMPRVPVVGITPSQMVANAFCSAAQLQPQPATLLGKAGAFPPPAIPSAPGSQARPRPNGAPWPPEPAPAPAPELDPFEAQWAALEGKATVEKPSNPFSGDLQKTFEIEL
UniProt Q9BQG2: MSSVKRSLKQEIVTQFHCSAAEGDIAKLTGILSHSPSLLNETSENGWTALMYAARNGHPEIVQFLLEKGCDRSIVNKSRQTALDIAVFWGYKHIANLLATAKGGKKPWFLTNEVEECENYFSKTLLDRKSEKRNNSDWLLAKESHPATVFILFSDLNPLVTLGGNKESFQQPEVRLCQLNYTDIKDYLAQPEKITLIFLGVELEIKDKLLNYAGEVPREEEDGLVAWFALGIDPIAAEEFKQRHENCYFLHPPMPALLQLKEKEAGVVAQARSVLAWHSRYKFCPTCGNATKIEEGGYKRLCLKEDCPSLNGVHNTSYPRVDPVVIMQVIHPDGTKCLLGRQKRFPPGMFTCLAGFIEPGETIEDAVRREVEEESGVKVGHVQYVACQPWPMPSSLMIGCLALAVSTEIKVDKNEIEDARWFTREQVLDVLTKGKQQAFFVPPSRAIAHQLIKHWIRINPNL
UniProt Q9HAN9, whole entry, looked up: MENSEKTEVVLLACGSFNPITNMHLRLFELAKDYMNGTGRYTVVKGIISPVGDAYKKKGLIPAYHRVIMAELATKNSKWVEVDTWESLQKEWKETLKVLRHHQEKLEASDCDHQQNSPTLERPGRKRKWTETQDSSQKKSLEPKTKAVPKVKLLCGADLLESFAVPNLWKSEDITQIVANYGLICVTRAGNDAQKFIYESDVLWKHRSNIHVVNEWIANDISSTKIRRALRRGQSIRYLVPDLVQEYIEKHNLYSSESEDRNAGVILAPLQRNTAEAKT
UniProt P49902: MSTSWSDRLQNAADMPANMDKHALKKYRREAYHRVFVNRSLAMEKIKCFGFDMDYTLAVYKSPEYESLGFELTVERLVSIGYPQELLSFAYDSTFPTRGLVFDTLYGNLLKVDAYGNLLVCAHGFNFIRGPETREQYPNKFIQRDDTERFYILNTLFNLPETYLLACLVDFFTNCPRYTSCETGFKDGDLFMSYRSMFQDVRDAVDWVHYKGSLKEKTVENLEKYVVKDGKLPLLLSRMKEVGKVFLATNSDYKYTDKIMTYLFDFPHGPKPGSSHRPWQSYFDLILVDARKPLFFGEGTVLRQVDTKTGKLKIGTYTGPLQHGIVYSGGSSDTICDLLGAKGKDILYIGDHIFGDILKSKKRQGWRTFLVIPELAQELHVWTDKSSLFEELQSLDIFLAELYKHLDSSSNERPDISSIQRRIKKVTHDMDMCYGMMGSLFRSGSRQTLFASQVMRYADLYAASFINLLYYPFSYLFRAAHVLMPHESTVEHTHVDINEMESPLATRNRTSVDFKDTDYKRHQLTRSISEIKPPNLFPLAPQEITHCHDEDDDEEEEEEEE
UniProt Q9H0G5: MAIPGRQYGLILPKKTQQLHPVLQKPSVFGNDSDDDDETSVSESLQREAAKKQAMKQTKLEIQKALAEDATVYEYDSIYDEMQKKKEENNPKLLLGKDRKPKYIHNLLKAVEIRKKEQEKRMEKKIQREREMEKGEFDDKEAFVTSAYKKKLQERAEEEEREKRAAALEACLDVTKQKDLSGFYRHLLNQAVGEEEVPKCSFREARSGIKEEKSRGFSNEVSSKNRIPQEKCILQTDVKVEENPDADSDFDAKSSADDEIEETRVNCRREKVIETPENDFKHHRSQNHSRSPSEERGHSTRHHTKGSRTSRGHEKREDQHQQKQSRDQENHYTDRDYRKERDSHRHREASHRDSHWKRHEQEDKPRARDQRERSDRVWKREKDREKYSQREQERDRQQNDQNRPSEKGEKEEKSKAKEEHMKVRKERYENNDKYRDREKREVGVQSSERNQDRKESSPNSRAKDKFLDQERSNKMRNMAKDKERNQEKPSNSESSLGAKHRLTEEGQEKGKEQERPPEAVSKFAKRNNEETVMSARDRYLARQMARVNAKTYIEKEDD
UniProt Q9NZJ9: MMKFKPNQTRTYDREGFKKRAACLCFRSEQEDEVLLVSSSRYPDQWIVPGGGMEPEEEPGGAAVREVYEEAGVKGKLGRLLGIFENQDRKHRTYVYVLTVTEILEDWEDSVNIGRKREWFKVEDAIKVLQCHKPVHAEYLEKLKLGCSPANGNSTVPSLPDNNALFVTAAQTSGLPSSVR
UniProt Q96IY1: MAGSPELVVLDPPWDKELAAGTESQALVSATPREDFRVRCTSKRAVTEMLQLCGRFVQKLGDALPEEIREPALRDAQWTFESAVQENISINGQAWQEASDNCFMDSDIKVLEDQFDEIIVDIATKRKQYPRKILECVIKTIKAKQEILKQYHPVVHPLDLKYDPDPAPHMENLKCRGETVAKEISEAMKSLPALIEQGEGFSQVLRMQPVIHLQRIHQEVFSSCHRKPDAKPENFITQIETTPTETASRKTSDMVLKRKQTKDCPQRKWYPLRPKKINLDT
UniProt Q9NXX6: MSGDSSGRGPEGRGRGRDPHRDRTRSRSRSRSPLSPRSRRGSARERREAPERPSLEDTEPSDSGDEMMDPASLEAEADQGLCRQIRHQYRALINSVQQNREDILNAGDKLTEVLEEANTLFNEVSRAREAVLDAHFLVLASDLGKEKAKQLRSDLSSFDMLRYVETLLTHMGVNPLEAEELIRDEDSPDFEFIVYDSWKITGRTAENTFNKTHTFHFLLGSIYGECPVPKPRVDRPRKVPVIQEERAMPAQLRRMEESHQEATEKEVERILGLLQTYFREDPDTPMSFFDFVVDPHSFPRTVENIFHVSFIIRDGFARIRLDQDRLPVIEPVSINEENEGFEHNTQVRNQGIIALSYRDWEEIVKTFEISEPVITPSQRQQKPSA
UniProt Q96RS6: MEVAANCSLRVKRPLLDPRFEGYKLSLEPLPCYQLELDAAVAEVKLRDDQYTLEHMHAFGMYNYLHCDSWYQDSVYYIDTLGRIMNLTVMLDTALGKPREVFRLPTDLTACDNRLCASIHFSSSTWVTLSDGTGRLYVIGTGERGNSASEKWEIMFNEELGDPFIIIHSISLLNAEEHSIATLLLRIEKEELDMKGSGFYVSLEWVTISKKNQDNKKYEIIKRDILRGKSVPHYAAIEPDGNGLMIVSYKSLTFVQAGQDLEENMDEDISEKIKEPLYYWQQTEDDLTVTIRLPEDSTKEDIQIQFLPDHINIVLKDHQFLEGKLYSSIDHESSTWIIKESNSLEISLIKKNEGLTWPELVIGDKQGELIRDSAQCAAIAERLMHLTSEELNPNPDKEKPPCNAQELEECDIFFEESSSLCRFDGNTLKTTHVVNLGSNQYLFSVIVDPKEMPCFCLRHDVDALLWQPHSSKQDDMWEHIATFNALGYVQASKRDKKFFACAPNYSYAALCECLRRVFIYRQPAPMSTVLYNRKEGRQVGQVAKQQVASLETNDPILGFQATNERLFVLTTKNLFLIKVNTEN
UniProt Q5JPE7: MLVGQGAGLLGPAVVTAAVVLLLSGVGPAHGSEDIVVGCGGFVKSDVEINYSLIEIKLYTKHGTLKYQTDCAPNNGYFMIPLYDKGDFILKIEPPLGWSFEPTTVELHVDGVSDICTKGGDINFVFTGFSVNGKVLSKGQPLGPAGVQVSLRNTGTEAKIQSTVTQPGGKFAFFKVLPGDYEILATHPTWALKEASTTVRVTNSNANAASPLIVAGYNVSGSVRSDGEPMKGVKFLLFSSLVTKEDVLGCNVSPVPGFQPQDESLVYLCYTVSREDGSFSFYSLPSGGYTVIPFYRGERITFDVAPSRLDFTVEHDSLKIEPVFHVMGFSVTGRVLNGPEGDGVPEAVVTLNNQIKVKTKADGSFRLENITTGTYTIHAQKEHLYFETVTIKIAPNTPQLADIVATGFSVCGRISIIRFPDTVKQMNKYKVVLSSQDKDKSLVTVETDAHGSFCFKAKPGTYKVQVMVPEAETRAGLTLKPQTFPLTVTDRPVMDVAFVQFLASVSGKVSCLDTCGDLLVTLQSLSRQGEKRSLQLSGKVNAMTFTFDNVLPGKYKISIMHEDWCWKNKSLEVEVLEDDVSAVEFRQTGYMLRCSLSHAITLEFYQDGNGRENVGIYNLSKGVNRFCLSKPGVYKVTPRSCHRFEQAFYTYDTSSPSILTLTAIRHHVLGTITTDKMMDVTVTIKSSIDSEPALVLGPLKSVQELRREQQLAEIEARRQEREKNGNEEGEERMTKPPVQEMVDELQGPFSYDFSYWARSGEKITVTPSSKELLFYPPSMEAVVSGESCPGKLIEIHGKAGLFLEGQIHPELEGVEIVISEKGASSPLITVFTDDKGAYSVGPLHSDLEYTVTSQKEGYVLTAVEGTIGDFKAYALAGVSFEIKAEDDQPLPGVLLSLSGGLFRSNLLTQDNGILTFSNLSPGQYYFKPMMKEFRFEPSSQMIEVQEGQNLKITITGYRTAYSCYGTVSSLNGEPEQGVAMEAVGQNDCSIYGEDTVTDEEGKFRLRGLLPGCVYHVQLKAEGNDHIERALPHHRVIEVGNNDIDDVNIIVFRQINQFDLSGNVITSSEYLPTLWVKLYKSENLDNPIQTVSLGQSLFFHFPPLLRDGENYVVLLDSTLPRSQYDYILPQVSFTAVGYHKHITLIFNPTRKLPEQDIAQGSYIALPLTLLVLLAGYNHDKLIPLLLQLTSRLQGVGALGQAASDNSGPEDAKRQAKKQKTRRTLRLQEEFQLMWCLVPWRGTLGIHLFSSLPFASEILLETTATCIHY
UniProt Q8NC60: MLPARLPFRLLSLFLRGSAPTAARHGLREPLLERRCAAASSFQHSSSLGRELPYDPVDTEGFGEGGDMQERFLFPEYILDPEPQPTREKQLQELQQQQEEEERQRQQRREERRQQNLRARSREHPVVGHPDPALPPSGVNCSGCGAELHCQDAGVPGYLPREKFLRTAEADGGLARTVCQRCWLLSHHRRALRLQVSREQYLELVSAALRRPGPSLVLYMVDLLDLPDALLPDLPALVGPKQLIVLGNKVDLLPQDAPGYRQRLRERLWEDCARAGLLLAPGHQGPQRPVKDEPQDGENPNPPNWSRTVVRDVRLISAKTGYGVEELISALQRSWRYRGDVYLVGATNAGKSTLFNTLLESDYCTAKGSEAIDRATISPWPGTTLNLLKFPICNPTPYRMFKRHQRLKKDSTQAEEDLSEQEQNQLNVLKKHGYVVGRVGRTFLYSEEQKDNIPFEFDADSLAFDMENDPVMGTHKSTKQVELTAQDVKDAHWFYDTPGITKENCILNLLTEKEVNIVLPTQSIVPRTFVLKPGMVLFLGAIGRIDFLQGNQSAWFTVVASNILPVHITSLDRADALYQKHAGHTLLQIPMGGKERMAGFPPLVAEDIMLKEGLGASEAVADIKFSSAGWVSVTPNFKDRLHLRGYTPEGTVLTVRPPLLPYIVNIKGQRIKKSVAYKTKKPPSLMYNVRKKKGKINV
UniProt Q8WVJ2: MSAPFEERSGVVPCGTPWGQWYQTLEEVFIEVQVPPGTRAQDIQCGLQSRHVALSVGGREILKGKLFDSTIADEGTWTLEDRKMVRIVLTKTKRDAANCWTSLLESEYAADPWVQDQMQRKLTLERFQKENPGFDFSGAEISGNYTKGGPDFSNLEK

What follows are targets tested with Cn1cncc1[C@@](N)(c1ccc(Cl)cc1)c1ccc2c(c1)c(-c1cccc(Cl)c1)cc(=O)n2C [tipifarnib] (assay: log2 fold change, soluble protein after heating vs DMSO (PISA); higher = thermal stabilisation; K562 lysate, 10 uM; active = over 0.2 and 3.5 SD of the protein, either way, in both replicates (recomputed)).
How it was run: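 K562 pellets were dounce-homogenised in PBS pH 7.4 with 1 mM MgCl2, and the crude extract at 1 mg/mL protein was treated with 10 μM compound for 30 min. Aliquots were heated for 3 min across 48°C-58°C, pooled, and brought to 0.5% NP-40 at 4°C; soluble protein was the supernatant after 21,000xg for 90 min. Soluble protein was quantified by TMTpro 16plex LC-MS/MS with channel sums equalised, and reported as log2 fold change in thermal stability against DMSO controls, with values from duplicates.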
NUDT5 (UniProt Q9UKK9) was tested, and the log2 fold change was inactive: -0.013. NOL12 (UniProt Q9UGY1) was tested, and the log2 fold change was inactive: 0.214. For NUBP1 (UniProt P53384), the log2 fold change was inactive: 0.033. For NUMBL (UniProt Q9Y6R0), the log2 fold change was inactive: -0.06. In the case of NUDT12 (UniProt Q9BQG2), the log2 fold change is reported as inactive: -0.014. In the case of NMNAT1 (UniProt Q9HAN9), the log2 fold change is reported as inactive: -0.018. For NT5C2 (UniProt P49902), the log2 fold change was inactive: 0.039. For NSRP1 (UniProt Q9H0G5), the log2 fold change was inactive: -0.04. For NUDT4 isoform 2 (UniProt Q9NZJ9), the log2 fold change was inactive: -0.044. In the case of NSL1 (UniProt Q96IY1), the log2 fold change is reported as inactive: 0.024. With NSFL1C isoform 5 (UniProt Q9UNZ2) the log2 fold change was inactive: 0.008. For NSUN5 isoform 2 (UniProt Q96P11), the log2 fold change was inactive: 0.023. NRAS (UniProt P01111) was tested, and the log2 fold change was inactive: 0.013. In the case of NOC3L (UniProt Q8WTT2), the log2 fold change is reported as inactive: 0.107. NMD3 (UniProt Q96D46) was tested, and the log2 fold change was inactive: -0.004. NSMCE4A (UniProt Q9NXX6) was tested, and the log2 fold change was inactive: 0.032. NUDCD1 (UniProt Q96RS6) was tested, and the log2 fold change was inactive: -0.011. NOMO2 (UniProt Q5JPE7) was tested, and the log2 fold change was inactive: -0.043. For NOA1 (UniProt Q8NC60), the log2 fold change was inactive: -0.027. In the case of NOP53 (UniProt Q9NZM5), the log2 fold change is reported as inactive: -0.226. With NOSIP (UniProt Q9Y314) the log2 fold change was inactive: -0.021. For NUDCD2 (UniProt Q8WVJ2), the log2 fold change was inactive: 0.028. NSF (UniProt P46459) was tested, and the log2 fold change was inactive: -0.02.
